# Assay results from article PMC12040169 (PLOS Biology, 2025).
# This is one part of the list.
# Test system: T1, CTL2-GFP (C. trachomatis L2/434/Bu, GFP-expressing)
# T1 construct: L2/434/Bu, GFP-expressing
# Set-up: species or system HeLa; Intracellular C. trachomatis growth in HeLa cells, bulk GFP fluorescence relative to DMSO
# Details: bulk GFP, single well; 28.5 h, 10 µM; inhibitor
row,SMILES,% of control remaining [%]
1,O=C(O)C1(Oc2ccc3ccccc3c2)CCN(CC2CCOC2)CC1 (stereo not drawn) [CBK306767],132.118
2,CN1C(=O)c2ccccc2C(O)C2(C)CN(Cc3ccccc3)CC12 (stereo not drawn) [CBK282849],96.0116
3,N#Cc1ccccc1CSc1ncn[nH]1 [CBK027835],100
4,C[N+]1(C)CCN(C(=O)CCC(=O)N2CC[N+](C)(C)CC2)CC1 [CBK278200I],112.767
5,O=C(NC(=S)Nc1cccc(-c2nc3cc(Cl)ccc3o2)c1)c1ccccc1Br [CBK263973],140.686
6,COc1ccc(CN2CCN(C)CC2)cc1OCc1ccccc1 [CBK261886],108.643
7,Clc1cc(N[C@@H]2CCN(Cc3ccccc3)C2)n2nccc2n1 [CBK037069],143.567
8,O=C(O)C1(NS(=O)(=O)c2ccc(Cl)cc2)CCCCC1 [CBK028566],84.1802
9,CSCCN1CCC(Oc2nccnc2OCc2cc(C)on2)CC1 [CBK082966T],118.84
10,Nc1nccc(-c2cc(OCC(F)(F)F)ccc2OCC(F)(F)F)n1 [CBK005948],119.066
11,O=S(=O)(N[C@H]1CO[C@H]2[C@@H]1OC[C@@H]2n1cc(-c2ccccn2)nn1)c1cccs1 [CBK289508],105.641
12,CCC(C)(C)C(=O)Nc1ccc(Br)c2ccccc12 [CBK091342],71.5692
13,CCOC(=O)c1c(NC(=O)c2cccnc2)sc2c1CCCC2 [CBK304574],99.6569
14,CCNC(=O)N[C@H]1CC[C@]2(C)CCC([C@H](C)C(=O)N3CCCC3)[C@H](O)[C@H]2[C@@H]1C (stereo partly drawn) [CBK289456],107.689
15,CN(C)CC(=O)Nc1ccc(Br)cc1C(=O)c1ccccc1Cl [CBK264663F],126.809
16,CC1CN(C(=O)NC2CCCCC2)C(c2ccccc2)ON1C (stereo not drawn) [CBK026650],133.672
17,COc1ccc(NC(=O)CSc2cc(-n3cccn3)ncn2)cc1 [CBK287819],104.681
18,O=C1OCc2ccc3c(c21)COCO3 [CBK022696],107.661
19,CCCCn1c(SCC(=O)N(C)Cc2cnn(-c3ccccc3)c2)n[nH]c1=O [CBK296732],129.263
20,Cc1cc2ccccc2n2c(=O)n(CC(=O)N3CCC(C)CC3)nc12 [CBK283881],128.663
21,OCc1ccccc1-c1cncc(N2CCCC2CO)n1 (stereo not drawn) [CBK065333],179.607
22,Cc1nn(-c2nc3ccccc3s2)c(O)c1C1OC(=O)c2ccccc21 (stereo not drawn) [CBK267220],127.459
23,N#CC1(NC(=O)c2ccn(-c3cccc(F)c3)n2)CCSC1 (stereo not drawn) [CBK304566],110.414
24,COC(=O)N1CCC(C(=O)NC(c2ccccc2)c2nc(OC)cc(OC)n2)CC1 (stereo not drawn) [CBK059651],134.095
25,Cc1cc(C)nc(SCC(=O)Nc2ccc(S(=O)(=O)NC3CCCCC3)cc2)n1 [CBK268299],141.699
26,CC(CN(C)C(=O)c1cocn1)Oc1ccc(Cl)c(Cl)c1 (stereo not drawn) [CBK304285],112.664

# Laid out differently: entries from further up
row	SMILES	% of control remaining [%]
2	CN1C(=O)c2ccccc2C(O)C2(C)CN(Cc3ccccc3)CC12 (stereo not drawn) [CBK282849]	96.0116
3	N#Cc1ccccc1CSc1ncn[nH]1 [CBK027835]	100
4	C[N+]1(C)CCN(C(=O)CCC(=O)N2CC[N+](C)(C)CC2)CC1 [CBK278200I]	112.767

# Additional structures

row,SMILES,% of control remaining [%]
1,COc1cncc(-c2cc(N3CCN(C(=O)c4ccco4)CC3)ncn2)c1 [CBK091121],174.154
2,COCCN1C(=O)CC2(C1=O)C(=O)N(CC(=O)c1ccccc1)c1ccccc12 (stereo not drawn) [CBK075875],134.888
3,O=C(Nc1ccc(Cl)cc1)Nc1ccc(OCC(O)CN2CCCCC2)cc1 (stereo not drawn) [CBK086101],75.8501
4,O=C1c2ccccc2C(=O)N1Cc1nc2ccccc2c(=O)n1CCCN1CCOCC1 [CBK268463],132.518
5,COc1ccc2[nH]c3c(c2c1)CCN1C(c2ccco2)N2CCC31CC2 (stereo not drawn) [CBK284432],112.915
6,Cn1nccc1CN1CCNC(=O)C1c1ccccc1C(F)(F)F (stereo not drawn) [CBK306422],118.552
7,CC(NC(=O)C1CC(=O)N(c2cccc(F)c2)C1)C1CC2CCC1C2 (stereo not drawn) [CBK281664],130.93
8,Cc1nc([N+](=O)[O-])c(SCC(O)CN2CCCCC2)[nH]1 (stereo not drawn) [CBK261727],116.059
9,Cc1cc(C)nc(SCCC(=O)O)n1 [CBK260975],118.271
10,CS(=O)(=O)N(CC(=O)Nc1ccc(S(=O)(=O)N2CCCCCC2)cc1)c1ccccc1F [CBK266829],141.558
11,Cc1ccccc1Cn1c(=O)sc2ccccc21 [CBK025408],124.495
12,O=C(/C=C/c1ccc2c(c1)OCO2)N1CCN(c2ncccn2)CC1 [CBK144501],123.432
13,CCCc1n[nH]c(=S)n1CC(=O)Nc1cc(NC(=O)C2CC2)ccc1C [CBK297740],131.913
14,O=C(c1ccco1)N1CCN(c2cc(-c3ccsc3)ncn2)CC1 [CBK037690],225.051
15,O=C(NCCn1nc(-c2cccs2)ccc1=O)C1CCCC1 [CBK283840],96.1697
16,O=C(Nc1ccc(N2CCNCC2)nc1)c1cnccn1 [CBK029436T],124.356
17,Cc1ccc(C2N(Cc3ccccc3)CCN2Cc2ccccc2)o1 [CBK260883],108.645
18,CCC1CCCCN1C(=O)c1cccs1 (stereo not drawn) [CBK074214],117.365
19,O=C(NC[C@H]1C[C@@H]2CC[N@]1C[C@@H]2CN1CCN(c2ncccn2)CC1)c1ccco1 [CBK289115],140.92
20,CC1OCN(c2ccc(C(C)(C)C)cc2)Cn2c1nc1ccccc12 (stereo not drawn) [CBK018706],125.534
21,O=C(O)CCn1c(C2CCCCC2)nc2ccccc21 [CBK111480],87.9607
22,CCC(C)(C)Nc1cccnc1N(C)C1CCN(C(=O)c2cc3cc(N)ccc3[nH]2)CC1 [CBK016674],132.394
23,CC(C)N1CCC(=NNC(=O)COc2ccc(Cl)cc2Cl)CC1 [CBK262614],100
24,CN1C(=O)CC2(C1=O)C(=O)N(CCN1C(=O)c3ccccc3C1=O)c1ccc(F)cc12 (stereo not drawn) [CBK075451],136.352
25,Cc1ccc(Cl)c(OCc2nnc(SCC(=O)O)n2N)c1 [CBK268992],70.2219
